# From publication doi:10.1101/2021.12.03.471073
# Sequences of proteins named here, by UniProt entry; tags and fusion partners are left off.
# UniProt P29375: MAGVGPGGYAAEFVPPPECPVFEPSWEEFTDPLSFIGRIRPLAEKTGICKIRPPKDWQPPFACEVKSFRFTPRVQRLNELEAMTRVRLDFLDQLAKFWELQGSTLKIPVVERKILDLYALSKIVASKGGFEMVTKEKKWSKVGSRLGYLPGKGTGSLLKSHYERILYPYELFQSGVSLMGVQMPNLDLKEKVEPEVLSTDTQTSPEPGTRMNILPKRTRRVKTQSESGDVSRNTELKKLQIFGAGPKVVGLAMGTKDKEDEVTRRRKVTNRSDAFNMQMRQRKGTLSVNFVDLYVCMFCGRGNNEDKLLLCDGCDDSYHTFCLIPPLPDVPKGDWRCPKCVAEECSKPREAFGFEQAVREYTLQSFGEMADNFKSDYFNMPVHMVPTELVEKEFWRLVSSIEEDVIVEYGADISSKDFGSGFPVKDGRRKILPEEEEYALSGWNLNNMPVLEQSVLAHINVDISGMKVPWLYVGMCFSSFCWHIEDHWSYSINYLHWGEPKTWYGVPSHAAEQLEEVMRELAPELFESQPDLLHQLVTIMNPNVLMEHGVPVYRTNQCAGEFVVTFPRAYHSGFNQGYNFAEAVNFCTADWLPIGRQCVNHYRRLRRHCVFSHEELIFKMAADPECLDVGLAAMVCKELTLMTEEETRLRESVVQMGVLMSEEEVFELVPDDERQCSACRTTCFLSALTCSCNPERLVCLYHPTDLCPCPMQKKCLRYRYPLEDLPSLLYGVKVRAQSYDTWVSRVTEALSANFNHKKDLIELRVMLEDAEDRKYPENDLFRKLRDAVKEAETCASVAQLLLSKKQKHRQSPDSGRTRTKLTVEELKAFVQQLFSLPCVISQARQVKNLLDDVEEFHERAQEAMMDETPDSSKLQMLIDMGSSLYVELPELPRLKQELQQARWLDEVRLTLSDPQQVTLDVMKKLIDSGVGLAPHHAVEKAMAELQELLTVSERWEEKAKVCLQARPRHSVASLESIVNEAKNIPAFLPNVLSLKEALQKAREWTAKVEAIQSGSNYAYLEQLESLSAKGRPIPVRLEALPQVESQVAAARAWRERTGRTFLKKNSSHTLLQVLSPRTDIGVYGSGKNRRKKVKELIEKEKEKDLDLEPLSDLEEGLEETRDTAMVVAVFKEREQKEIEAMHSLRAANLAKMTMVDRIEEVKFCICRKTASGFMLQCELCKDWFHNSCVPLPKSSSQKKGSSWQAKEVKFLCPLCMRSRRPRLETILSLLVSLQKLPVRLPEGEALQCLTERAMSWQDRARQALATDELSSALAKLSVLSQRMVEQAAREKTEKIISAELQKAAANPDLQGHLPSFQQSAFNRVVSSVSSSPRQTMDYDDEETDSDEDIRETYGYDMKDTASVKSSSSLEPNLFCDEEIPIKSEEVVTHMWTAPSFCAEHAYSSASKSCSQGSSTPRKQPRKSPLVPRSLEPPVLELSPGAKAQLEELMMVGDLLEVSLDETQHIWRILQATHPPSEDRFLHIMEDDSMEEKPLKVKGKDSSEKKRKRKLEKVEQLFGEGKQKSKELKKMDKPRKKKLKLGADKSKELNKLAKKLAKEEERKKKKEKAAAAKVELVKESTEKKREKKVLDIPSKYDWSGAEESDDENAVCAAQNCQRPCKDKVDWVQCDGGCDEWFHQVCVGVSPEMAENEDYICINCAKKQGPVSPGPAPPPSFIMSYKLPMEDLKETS
# UniProt Q9UMN6: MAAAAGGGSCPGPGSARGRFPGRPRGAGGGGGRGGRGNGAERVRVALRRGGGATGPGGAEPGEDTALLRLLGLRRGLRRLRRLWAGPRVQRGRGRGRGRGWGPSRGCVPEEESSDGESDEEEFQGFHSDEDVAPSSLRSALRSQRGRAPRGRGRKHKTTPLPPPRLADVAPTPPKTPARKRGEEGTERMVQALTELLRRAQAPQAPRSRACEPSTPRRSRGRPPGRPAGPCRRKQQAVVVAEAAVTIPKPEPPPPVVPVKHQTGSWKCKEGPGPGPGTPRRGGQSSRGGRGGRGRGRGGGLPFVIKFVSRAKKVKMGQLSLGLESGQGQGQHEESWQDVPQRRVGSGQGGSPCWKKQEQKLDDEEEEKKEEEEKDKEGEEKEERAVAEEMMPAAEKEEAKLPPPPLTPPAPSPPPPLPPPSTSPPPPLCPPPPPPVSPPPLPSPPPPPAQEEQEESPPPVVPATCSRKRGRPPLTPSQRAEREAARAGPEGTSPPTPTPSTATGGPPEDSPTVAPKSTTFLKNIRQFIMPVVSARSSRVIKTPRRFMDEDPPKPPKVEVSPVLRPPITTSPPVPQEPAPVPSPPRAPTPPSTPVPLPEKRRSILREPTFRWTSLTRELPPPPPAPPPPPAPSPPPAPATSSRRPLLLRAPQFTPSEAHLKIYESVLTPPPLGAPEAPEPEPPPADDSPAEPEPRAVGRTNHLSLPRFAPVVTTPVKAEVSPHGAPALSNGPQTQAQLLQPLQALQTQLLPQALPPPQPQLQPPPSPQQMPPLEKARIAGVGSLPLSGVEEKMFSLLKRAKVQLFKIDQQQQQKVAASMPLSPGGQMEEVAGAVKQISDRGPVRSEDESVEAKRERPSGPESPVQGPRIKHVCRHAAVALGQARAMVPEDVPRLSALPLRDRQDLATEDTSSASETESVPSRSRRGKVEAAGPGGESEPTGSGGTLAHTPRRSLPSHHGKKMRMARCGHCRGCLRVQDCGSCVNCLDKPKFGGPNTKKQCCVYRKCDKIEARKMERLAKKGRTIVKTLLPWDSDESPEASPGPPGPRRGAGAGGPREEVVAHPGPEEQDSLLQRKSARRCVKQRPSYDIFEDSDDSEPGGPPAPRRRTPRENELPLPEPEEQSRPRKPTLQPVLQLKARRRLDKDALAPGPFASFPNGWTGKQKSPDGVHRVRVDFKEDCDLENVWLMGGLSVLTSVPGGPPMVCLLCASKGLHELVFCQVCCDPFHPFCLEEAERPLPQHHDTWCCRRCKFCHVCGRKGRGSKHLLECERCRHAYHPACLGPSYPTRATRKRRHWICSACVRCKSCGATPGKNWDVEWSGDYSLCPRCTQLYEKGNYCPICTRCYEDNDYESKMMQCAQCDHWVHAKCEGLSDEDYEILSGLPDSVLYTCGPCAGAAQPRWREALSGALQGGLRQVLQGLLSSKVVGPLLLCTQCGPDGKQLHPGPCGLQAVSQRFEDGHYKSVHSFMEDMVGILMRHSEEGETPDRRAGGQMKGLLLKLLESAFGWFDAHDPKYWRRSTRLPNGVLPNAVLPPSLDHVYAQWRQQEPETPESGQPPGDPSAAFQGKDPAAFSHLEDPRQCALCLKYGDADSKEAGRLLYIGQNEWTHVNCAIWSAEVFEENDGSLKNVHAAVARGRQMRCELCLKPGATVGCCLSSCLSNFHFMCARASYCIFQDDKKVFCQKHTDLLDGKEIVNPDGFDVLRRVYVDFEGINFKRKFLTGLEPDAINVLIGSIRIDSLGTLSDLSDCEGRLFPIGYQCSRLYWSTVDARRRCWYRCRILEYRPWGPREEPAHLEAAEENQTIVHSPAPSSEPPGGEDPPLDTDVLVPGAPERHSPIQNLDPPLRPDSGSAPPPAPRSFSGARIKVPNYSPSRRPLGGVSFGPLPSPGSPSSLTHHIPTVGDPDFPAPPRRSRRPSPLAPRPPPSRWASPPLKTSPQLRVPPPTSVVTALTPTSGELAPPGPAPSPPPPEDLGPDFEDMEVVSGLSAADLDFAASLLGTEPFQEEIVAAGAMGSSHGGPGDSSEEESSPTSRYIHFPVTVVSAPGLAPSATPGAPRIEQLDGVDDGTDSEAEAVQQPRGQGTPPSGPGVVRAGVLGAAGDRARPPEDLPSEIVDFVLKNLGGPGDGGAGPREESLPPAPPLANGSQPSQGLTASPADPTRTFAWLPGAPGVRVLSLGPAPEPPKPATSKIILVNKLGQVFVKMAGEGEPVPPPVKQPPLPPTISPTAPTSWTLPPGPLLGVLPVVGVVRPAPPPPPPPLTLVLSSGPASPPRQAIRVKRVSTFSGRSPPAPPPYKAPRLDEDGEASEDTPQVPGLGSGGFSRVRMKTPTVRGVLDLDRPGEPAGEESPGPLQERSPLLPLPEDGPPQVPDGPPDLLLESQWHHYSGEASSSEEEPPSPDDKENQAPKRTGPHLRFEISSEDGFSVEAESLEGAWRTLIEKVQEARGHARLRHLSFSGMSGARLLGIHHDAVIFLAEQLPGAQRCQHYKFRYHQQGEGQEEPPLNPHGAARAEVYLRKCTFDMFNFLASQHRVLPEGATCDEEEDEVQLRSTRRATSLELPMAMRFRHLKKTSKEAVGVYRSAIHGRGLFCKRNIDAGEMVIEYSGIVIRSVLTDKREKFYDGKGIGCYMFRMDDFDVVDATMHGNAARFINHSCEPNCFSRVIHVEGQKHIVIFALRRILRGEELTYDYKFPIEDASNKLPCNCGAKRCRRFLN
# No constants are given. Whether binding was seen depends on the method and setting. In cells and extracts the contact can be indirect. Some results given as binding are weak or reduced against the parent protein; the word gives no strength.
# Assays:
# [1] = molecular target: KDM5A (human (endogenous in U87MG and HaCaT)) (UniProt P29375); experiment: co-IP
# [2] = molecular target: MLL1 (human (endogenous in U87MG)) (UniProt Q03164); experiment: co-IP
substance,measurement,setting,value
MLL2 (from UniProt Q9UMN6 1-2715),binding,[1],binds
same,binding,[2],binds
